# Measured values published in patent US20260137790A1, “MIXED VASOPRESSIN RECEPTOR AGONIST-ANTAGONIST FOR MODULATING MEAN ARTERIAL PRESSURE” (FERRING B.V., priority 2022, published 2026).
# Chains of the proteins cited; added tags and fusions are not shown.
# UniProt P37288, whole entry: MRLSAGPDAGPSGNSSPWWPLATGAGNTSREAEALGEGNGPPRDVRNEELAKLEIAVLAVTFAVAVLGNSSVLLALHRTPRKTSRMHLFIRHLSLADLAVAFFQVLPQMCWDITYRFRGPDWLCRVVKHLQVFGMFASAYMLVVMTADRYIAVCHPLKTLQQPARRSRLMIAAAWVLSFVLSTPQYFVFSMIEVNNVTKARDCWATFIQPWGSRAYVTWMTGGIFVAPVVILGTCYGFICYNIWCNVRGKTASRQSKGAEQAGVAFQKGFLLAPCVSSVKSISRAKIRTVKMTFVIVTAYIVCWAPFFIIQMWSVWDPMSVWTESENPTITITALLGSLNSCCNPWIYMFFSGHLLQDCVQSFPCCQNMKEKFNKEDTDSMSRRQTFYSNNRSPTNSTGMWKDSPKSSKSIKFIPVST
# At least one peptide structure holds a part that was inferred or is arguable (an end, a ring closure or a residue). Starred links: 1 amine or outer side, 2 acyl side, 3 side chain; linkers in the order of their positions; H or OH if unused. Positions of bridges follow the written chain, without caps; N, C: chain ends. Non-standard residues stand in square brackets, D forms with d. Residues, ends and D or L forms follow the SMILES beside them. Groups on a side chain read outwards from the residue. *: point of attachment. X1 = CC(=O)NCCCC[C@H](NC(=O)CC[C@H](N)C(N)=O)C(=O)*; εLys = N[C@@H](CCCCN[*:1])C(=O)[*:2]; Dab = NCC[C@H](N)C(=O)O
# Target: V1a (Homo sapiens, UniProt P37288)
# Assay: Relative V1a activity of metabolite M1
smiles,measurement,value
CC[C@H](C)[C@@H]1NC(=O)[C@H](Cc2ccccc2)NC(=O)[C@@H](N)CSSC[C@@H](C(=O)N2CCC[C@H]2C(=O)N[C@@H](CCNC(=O)[C@@H](N)CCCCNC(=O)[C@H](CCCCNC(C)=O)NC(=O)CC[C@H](N)C(N)=O)C(=O)NCC(N)=O)NC(=O)[C@H](CC(N)=O)NC(=O)[C@H](CCC(N)=O)NC1=O [Compound M1] (H-CFIQNCP[Dab]([εLys-X1])G-NH2; disulfide 1-6),activity for V1a relative to Compound 1,about one-tenth
